# According to the supplement of paper PMC6411743:
# Chains of the proteins cited; added tags and fusions are not shown. Lines headed by an entry give the natural chain unless they say otherwise; changes in a name come on top.
# UniProt Q9BX68: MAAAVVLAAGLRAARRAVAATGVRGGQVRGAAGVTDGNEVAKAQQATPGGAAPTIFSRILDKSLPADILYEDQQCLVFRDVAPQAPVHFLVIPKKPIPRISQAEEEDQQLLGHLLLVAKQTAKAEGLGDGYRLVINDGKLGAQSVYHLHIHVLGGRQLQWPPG
# UniProt Q9BUE0: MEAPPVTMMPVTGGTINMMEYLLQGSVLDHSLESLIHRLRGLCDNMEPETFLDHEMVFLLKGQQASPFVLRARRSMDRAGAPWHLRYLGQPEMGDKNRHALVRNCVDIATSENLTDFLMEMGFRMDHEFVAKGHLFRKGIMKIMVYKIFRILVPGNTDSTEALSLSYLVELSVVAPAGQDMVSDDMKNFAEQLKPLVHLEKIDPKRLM
# UniProt Q99471, whole entry: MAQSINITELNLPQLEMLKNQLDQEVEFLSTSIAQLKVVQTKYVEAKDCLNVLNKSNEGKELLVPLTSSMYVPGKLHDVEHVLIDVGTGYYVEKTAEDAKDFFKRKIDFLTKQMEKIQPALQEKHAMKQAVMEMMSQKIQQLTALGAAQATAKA
# UniProt Q99832: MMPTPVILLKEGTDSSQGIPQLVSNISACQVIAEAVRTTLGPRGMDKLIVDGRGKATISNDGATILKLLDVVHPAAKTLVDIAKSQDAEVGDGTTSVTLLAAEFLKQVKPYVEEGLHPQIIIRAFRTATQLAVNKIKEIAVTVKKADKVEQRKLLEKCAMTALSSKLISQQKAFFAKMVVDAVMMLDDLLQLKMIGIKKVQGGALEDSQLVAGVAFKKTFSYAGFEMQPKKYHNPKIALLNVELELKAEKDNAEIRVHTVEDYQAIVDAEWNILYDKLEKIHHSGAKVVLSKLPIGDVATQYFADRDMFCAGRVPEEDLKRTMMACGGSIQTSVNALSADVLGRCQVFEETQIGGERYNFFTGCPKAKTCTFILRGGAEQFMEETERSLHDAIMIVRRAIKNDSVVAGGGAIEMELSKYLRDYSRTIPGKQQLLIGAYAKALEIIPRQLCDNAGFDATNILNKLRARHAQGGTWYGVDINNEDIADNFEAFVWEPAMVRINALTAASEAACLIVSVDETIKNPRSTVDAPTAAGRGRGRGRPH
# ± gives the standard deviation of the averaged measurements. The list shows a part of the results.
# Compound: Nc1nc2c(ncn2[C@@H]2O[C@H](COP(=O)(O)OP(=O)(O)OP(=O)(O)O)[C@@H](O)[C@H]2O)c(=O)[nH]1 [guanosine triphosphate]
# Assay: NP40-soluble protein abundance relative to vehicle (solubility fold change) (ratio); higher = more soluble protein in presence of GTP
# Experimental: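 Solubility proteome profiling in Jurkat crude lysate. Lysate was treated with Mg-GTP (0.1-10 mM) for 10 min at room temperature and 3 min at 37 °C, then solubilised with 0.8% NP40 and benzonase, followed by ultracentrifugation. Proteins were quantified by TMT10 LC-MS/MS; the value is the NP40-soluble abundance relative to the NP40-processed vehicle, from 3 independent experiments.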
target,measurement,setting,value
UniProt Q9BZE1 and related entries,NP40-soluble protein abundance,concentration: 0.1mM,1.08 ± 0.17
same,NP40-soluble protein abundance,concentration: 0.5mM,1.27 ± 0.38
same,NP40-soluble protein abundance,concentration: 1mM,1.19 ± 0.33
same,NP40-soluble protein abundance,concentration: 2mM,1.47 ± 0.59
same,NP40-soluble protein abundance,concentration: 4mM,1.46 ± 0.52
same,NP40-soluble protein abundance,concentration: 6mM,1.41 ± 0.51
same,NP40-soluble protein abundance,concentration: 8mM,1.26 ± 0.4
same,NP40-soluble protein abundance,concentration: 10mM,1.24 ± 0.42
HINT2 (UniProt Q9BX68),NP40-soluble protein abundance,concentration: 0.1mM,1.01 ± 0.095
same,NP40-soluble protein abundance,concentration: 0.5mM,0.918 ± 0.031
same,NP40-soluble protein abundance,concentration: 1mM,0.987 ± 0.088
same,NP40-soluble protein abundance,concentration: 2mM,0.945 ± 0.12
same,NP40-soluble protein abundance,concentration: 4mM,0.998 ± 0.056
same,NP40-soluble protein abundance,concentration: 6mM,0.919 ± 0.052
same,NP40-soluble protein abundance,concentration: 8mM,0.988 ± 0.13
same,NP40-soluble protein abundance,concentration: 10mM,0.962 ± 0.1
MED18 (UniProt Q9BUE0),NP40-soluble protein abundance,concentration: 0.1mM,1.04 ± 0.047
same,NP40-soluble protein abundance,concentration: 0.5mM,1.02 ± 0.012
same,NP40-soluble protein abundance,concentration: 1mM,1.02 ± 0.026
same,NP40-soluble protein abundance,concentration: 2mM,1.045 ± 0.005
same,NP40-soluble protein abundance,concentration: 4mM,1.01 ± 0.021
same,NP40-soluble protein abundance,concentration: 6mM,1.04 ± 0.016
same,NP40-soluble protein abundance,concentration: 8mM,1.01 ± 0.025
same,NP40-soluble protein abundance,concentration: 10mM,0.979 ± 0.02
UniProt Q99471 and related entries,NP40-soluble protein abundance,concentration: 0.1mM,0.952 ± 0.036
same,NP40-soluble protein abundance,concentration: 0.5mM,1 ± 0.064
same,NP40-soluble protein abundance,concentration: 1mM,0.933 ± 0.044
same,NP40-soluble protein abundance,concentration: 2mM,0.912 ± 0.034
same,NP40-soluble protein abundance,concentration: 4mM,0.802 ± 0.066
same,NP40-soluble protein abundance,concentration: 6mM,0.863 ± 0.094
same,NP40-soluble protein abundance,concentration: 8mM,0.837 ± 0.053
same,NP40-soluble protein abundance,concentration: 10mM,0.96 ± 0.01
CCT7 (UniProt Q99832),NP40-soluble protein abundance,concentration: 0.1mM,1.04 ± 0.034
same,NP40-soluble protein abundance,concentration: 0.5mM,1.11 ± 0.12
same,NP40-soluble protein abundance,concentration: 1mM,1.09 ± 0.13
same,NP40-soluble protein abundance,concentration: 2mM,1.09 ± 0.21
same,NP40-soluble protein abundance,concentration: 4mM,1.1 ± 0.21
same,NP40-soluble protein abundance,concentration: 6mM,1.08 ± 0.23
same,NP40-soluble protein abundance,concentration: 8mM,1.06 ± 0.19
same,NP40-soluble protein abundance,concentration: 10mM,0.998 ± 0.2

# An excerpt of these results, bar-delimited:
target | measurement | setting | value
MED18 (UniProt Q9BUE0) | NP40-soluble protein abundance | concentration: 1mM | 1.02 ± 0.026
same | NP40-soluble protein abundance | concentration: 2mM | 1.045 ± 0.005
